Laboratory results published in paper PMC10675892.
No constants are given. Whether binding was seen depends on the method and setting. Binding seen in cells or lysates may run through a third protein. Some binding calls cover weakened binding; strength is not graded here.

Molecular target: Programmed cell death 1 ligand 1 (human (endogenous in T24 and UMUC3)) (UniProt Q9NZQ7)
Assay: co-IP; lysates of T24 and UMUC3 cells in IP lysis buffer with proteinase and phosphatase inhibitors and PMSF; antibodies and protein A/G magnetic beads overnight at 4 °C; washed at least three times; western blot; PDL1-P62 also after CXCL12 (50 ng/ml, 6 h)

Sequestosome-1 (from UniProt Q13501 1-440)
binding: binds
